Results on three molecules are retold here after patent US20180171002A1 (BERG, published 2018).

Protein sequences, listed by entry. Tags and fused reporters are not part of them. Residues count along the entry.
UniProt P21333, residues 2-2647: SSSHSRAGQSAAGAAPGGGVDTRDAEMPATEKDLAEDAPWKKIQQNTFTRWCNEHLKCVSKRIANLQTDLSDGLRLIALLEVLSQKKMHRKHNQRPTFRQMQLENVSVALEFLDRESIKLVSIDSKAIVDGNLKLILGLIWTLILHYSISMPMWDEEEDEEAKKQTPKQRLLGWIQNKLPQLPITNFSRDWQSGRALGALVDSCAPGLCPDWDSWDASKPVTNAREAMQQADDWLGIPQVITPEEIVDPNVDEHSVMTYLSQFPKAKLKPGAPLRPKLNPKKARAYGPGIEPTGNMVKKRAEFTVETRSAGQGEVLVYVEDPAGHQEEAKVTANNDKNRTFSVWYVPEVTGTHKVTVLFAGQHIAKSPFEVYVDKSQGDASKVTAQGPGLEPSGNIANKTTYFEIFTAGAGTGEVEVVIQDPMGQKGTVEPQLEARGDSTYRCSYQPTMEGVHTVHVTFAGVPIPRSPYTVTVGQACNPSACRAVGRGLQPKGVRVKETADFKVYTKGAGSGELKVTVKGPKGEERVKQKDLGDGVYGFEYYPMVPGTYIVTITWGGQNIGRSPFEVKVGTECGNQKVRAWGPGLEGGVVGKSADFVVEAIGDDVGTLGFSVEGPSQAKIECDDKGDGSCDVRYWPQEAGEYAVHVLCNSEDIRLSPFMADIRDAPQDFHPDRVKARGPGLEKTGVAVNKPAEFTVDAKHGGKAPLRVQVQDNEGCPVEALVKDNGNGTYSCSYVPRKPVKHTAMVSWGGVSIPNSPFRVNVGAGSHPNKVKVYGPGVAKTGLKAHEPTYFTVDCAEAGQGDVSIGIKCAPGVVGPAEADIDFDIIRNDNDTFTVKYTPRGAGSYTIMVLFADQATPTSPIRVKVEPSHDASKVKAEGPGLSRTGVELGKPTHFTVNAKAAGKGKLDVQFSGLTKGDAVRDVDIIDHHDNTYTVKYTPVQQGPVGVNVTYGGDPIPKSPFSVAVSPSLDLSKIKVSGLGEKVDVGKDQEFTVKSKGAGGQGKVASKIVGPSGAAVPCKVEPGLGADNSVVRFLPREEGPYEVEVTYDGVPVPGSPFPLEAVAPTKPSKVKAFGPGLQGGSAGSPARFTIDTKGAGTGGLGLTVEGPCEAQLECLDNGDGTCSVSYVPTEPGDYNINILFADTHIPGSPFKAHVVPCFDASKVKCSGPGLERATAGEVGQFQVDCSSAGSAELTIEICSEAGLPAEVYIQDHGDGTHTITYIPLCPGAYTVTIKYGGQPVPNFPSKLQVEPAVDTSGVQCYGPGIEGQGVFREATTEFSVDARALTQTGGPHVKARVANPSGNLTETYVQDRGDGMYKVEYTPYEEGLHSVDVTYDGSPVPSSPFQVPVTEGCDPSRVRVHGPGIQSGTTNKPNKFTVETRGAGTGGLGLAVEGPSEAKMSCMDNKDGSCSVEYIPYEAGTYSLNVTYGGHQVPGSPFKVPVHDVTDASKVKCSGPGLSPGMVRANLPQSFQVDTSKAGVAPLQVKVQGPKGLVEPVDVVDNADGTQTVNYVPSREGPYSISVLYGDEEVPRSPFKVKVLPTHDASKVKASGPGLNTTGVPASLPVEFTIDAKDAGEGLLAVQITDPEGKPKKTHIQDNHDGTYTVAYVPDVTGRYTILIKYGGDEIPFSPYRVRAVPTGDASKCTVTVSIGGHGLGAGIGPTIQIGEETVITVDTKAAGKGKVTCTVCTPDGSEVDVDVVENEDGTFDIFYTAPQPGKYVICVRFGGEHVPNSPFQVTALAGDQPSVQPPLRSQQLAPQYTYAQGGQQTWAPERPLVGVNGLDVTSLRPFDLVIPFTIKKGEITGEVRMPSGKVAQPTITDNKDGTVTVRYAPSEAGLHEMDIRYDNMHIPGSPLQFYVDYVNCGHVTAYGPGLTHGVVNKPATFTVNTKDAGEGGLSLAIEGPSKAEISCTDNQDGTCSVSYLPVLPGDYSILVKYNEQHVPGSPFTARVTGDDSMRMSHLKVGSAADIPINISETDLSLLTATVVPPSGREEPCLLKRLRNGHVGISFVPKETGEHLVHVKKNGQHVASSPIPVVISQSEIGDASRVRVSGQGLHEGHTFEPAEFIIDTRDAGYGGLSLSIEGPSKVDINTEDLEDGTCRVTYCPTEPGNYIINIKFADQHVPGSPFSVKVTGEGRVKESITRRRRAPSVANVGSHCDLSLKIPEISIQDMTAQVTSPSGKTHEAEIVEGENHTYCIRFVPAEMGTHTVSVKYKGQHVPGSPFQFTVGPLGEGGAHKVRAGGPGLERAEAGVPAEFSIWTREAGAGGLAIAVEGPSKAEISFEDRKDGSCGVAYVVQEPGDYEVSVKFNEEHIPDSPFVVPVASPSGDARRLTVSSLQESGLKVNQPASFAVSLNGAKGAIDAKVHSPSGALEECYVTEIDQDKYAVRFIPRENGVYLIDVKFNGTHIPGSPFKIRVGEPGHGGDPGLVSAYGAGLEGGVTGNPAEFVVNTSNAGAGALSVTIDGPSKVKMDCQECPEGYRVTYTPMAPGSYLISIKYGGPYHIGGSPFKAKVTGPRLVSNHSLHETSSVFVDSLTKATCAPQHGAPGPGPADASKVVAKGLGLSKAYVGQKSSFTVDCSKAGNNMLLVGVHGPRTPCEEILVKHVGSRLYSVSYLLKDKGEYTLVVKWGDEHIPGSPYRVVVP

Results are given in words; binding and its absence hold for the method and conditions named. Some binding calls cover weakened binding; strength is not graded here.

Assay [1] addresses FLNA (standards and FLNA in human serum or plasma, Examples 5 and 6) (human) (UniProt P21333). In words: sandwich ELISA, 6E3 capture, biotin-linked 3F4 detection. (In general: In an ELISA, binding on a coated surface is turned into a signal by an enzyme label.)
Assay [2] has the same target. In words: immunoprecipitation from human serum with resins of 2C12, 3F4 and 6E3 used together, then MRM.
The target in assay [3] is T1, peptides containing motif ERPLVGV (linear 15 mer peptides of the FLNA array) (human).
T1 sequence (peptide): ERPLVGV
In words: HiSense linear peptide array (15 mer peptides of FLNA aa 1443-2131), ELISA value per peptide; the antibody is named by the legend, not on the sheet.

Assay [4] shares this target. In words: linear 15 mer peptide array.
The target of assay [5] is FLNA (standards and FLNA in human serum or plasma, Examples 5 and 6) (human) (UniProt P21333). In words: sandwich ELISA, 6E3 coated as capture.

B1: anti-FLNA murine monoclonal antibody 3F4 (antibody, IgG2b, V domains shown)
VH: EVQLQESGPGLAKPSQTLSLTCSVTGYSITSNYWNWIRKFPGNKLEYMGYISFSGSTYYNPSLKSRISITRDTSKNQYYLQLNSVTTEDTATYYCARWNYYAMDYWGQGTSVTVSS
VL: DFLLTQSPAILSVSPGERVSFSCRASQSIGTNIHWYQQRTNGSPRLLIKFASESISGIPSRFSGSGSGTDFTLTINSVESEDIADYYCQQSNSWPYTFGGGTKLEIK
notes: also called clone 3F4
For B1, the binding result in assay [1] and in assay [2] was “binds” each time.

B2: anti-FLNA murine monoclonal antibody 6E3 (antibody, IgG1, V domains shown)
VH: QVQLQQSGAELMKPGASVKLSCKATGYTFTGYWIEWVKQRPGHGLEWIGEILPGNGSTNCNEKFKGKATFTATTSSNTAYMQLSSLTTEDSAIYYCTTVSYWGQGTTLTVSS
VL: DVVMTQTPLSLPVSLGDQASISCRSSQSLVHSNGNTYLHWYLQKPGQSPNLLIYKVSNRFSGVPDRFTGSGSGTDFTLKISRVEAEDLGVYFCSQSTHVPFTFGSGTKLEIK
notes: also called clone 6E3; mab 6E3
Take B2: the binding result in assay [3], in assay [4], in assay [5], in assay [1] and in assay [2] was “binds” each time.

B3: anti-FLNA murine monoclonal antibody 2C12 (antibody, IgG1, V domains shown)
VH: QVQLKQSGPGLVQPSQSLSITCTVSGFSLTNYGVHWVRQSPGKGLEWLGVIWRGGSTDYNAAFMSRLSITKDNSKSQVFFKMNSLQADDTAIYFCALRGNYVHYYLMDYWGQGTSVTVSS
VL: DIQVTQTPSSLSASLGDRVTISCRASQDISNYLNWYQQKPDGTVKLLIYYTSRLHSGVPSRFSGSGSGTDYSLTISNLDQEDIATYFCQQGNTLPPTFGGGTNLEIK
notes: also called clone 2C12
Take B3: the binding result in assay [2] is recorded as “binds”.
